Laboratory results taken from article PMC3516501.
These are yes or no findings as the source states them, for the method shown. In cells and extracts the contact can be indirect. Some results given as binding are weak or reduced against the parent protein; the word gives no strength.

Sequences of proteins named here, by UniProt entry; tags and fusion partners are left off.
UniProt Q00987: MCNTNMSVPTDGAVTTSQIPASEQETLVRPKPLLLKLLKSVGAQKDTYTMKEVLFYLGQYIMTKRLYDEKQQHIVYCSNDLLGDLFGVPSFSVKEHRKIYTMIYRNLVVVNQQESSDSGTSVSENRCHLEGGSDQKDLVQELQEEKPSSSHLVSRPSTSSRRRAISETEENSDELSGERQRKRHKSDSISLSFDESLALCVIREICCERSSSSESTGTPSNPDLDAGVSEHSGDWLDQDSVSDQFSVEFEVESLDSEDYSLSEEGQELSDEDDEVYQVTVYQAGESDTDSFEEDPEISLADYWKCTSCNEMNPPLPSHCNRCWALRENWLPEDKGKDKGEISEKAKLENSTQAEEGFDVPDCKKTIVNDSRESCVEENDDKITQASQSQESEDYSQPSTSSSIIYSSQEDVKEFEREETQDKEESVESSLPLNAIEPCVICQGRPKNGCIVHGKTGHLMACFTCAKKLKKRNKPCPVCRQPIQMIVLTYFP

Columns and labels:
[1] = molecular target: T1, ubiquitin specific protease 2a (USP2a) (human (endogenous in T24 and TRT-HU1)) (UniProt O75604); experiment: co-IP; TRT-HU1 cells in exponential growth, untreated; whole cell lysates, IP with anti-USP2a antibody, western blot with antibodies against USP2a and MDM2; normal mouse IgG as IP control
T1 sequence: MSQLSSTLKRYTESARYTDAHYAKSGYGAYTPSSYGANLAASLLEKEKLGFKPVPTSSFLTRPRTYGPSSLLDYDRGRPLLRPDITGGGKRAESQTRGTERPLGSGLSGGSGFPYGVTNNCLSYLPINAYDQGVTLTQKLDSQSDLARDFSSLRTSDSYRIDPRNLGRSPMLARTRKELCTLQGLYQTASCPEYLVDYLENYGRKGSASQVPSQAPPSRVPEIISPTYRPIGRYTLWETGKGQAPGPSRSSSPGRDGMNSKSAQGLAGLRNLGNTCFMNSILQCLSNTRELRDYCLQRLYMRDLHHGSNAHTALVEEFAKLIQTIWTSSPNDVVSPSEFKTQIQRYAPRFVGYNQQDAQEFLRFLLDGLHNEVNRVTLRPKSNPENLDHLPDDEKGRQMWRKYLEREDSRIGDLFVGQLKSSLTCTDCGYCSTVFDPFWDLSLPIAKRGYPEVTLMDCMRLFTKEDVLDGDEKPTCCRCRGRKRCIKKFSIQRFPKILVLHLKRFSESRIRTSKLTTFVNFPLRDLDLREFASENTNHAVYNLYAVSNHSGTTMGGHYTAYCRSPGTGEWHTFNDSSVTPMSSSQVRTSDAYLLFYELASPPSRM

[2] = molecular target: T1, ubiquitin specific protease 2a (USP2a) (human (endogenous in T24 and TRT-HU1)); experiment: co-IP; exponentially growing, untreated T24 cells; co-IP and western blot with antibodies against USP2a and MDM2

Substance: murine double minute 2 E3 ubiquitin ligase (MDM2) (from UniProt Q00987 1-491) (enzyme)
- binding [1]: binds
- binding [2]: binds
